Results from US8580834B2, “Small molecule modulators of hepatocyte growth factor (scatter factor) activity” (Angion Biomedica Corp., priority 2002, dated 2013).
At least one compound was matched to its structure with a doubt left.

Tested on: endothelial cell
Test: Inhibitors on compound- and HGF-induced endothelial cell proliferation
Format: cell-based

COC[C@H]1OC(=O)c2coc3c2[C@@]1(C)C1=C(C3=O)[C@@H]2CCC(=O)[C@@]2(C)C[C@H]1OC(C)=O [wortmannin]
effect on compound- and HGF-induced endothelial cell proliferation: prevent compound- and HGF-induced endothelial cell proliferation
